Drawing on paper doi:10.1101/2024.11.13.623522 (bioRxiv, 2024), this text covers binding for 5 molecules.

Chains of the proteins cited; added tags and fusions are not shown.
UniProt P02828: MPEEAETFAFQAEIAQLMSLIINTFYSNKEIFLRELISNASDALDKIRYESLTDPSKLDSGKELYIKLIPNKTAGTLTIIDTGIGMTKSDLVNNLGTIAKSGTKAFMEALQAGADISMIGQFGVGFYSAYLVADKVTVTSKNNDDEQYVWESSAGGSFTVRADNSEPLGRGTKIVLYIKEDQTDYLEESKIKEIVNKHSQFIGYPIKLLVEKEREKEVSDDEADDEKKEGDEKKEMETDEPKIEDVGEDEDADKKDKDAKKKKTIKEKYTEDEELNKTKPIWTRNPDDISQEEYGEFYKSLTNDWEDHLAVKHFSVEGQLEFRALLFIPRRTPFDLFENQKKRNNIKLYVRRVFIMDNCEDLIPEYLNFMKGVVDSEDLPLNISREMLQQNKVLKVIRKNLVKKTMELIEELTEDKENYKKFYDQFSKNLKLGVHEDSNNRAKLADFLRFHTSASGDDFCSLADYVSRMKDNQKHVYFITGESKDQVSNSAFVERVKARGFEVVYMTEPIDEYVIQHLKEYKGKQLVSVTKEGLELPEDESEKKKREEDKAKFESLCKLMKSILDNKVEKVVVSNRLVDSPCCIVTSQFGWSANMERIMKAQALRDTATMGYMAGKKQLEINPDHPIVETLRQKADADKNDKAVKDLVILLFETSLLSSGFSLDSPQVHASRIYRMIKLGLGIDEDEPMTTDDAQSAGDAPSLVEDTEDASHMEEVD

Common to all, as to test: co-IP
Assay [1] has as its target T1, FLAG-tagged Shu (Shu-FLAG) (Drosophila) (UniProt Q9W1I9).
T1 sequence: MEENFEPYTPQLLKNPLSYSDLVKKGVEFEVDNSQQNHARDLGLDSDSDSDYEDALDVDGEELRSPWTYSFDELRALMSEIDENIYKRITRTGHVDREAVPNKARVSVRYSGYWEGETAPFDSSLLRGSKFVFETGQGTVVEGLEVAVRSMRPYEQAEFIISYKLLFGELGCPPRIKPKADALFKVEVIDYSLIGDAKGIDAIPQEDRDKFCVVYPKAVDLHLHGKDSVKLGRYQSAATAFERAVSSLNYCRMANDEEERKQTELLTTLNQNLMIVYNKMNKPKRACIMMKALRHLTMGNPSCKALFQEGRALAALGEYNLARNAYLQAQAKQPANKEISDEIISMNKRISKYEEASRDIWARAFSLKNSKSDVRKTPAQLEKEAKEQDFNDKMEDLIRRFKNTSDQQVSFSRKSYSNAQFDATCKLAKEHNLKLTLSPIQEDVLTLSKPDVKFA

Assay [2] concerns the target T2, Shu ΔN77-FLAG (Drosophila) (UniProt Q9W1I9).
T2 sequence: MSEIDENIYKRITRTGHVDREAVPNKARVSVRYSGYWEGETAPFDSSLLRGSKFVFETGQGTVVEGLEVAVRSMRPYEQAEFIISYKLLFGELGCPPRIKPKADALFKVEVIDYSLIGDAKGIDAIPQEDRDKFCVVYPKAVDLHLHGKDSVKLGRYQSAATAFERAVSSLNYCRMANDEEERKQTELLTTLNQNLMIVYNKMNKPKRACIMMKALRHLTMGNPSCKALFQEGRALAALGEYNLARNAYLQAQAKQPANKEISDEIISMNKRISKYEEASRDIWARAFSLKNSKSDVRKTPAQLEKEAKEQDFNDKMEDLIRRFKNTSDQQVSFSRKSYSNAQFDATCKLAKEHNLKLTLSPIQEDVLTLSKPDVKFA

Assay [3] has as its target T3, Shutdown (Shu), endogenous in OSCs (Drosophila (endogenous in OSCs)) (UniProt Q9W1I9).
T3 sequence: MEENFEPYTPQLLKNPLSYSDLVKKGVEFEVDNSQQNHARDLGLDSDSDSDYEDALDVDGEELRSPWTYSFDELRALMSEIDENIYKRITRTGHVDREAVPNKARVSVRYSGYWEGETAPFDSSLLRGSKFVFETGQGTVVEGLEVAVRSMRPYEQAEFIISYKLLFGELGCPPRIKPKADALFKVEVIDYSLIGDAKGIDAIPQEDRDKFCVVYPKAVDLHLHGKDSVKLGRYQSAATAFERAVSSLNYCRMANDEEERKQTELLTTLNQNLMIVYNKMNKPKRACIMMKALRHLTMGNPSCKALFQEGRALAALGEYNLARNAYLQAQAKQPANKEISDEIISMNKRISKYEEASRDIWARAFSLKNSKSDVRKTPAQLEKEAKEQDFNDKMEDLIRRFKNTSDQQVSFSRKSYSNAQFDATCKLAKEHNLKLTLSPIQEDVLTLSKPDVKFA

For assay [4], the target named is T1, FLAG-tagged Shu (Shu-FLAG) (Drosophila). This is another data set of the same source.

Read-outs that look alike come from different tables or passages of the source. These are yes or no findings as the source states them, for the method shown. Binding seen in cells or lysates may run through a third protein. Some binding calls cover weakened binding; strength is not graded here. For part of these data: Sequences can lack the tags named with a protein.

On to “HSP83, endogenous in OSCs (from UniProt P02828 1-717)”, for which the binding result in assay [1] is on record as “no binding”.

B1: Shu ΔN77-FLAG (domain or fragment, UniProt Q9W1I9 78-455)
chain: MSEIDENIYKRITRTGHVDREAVPNKARVSVRYSGYWEGETAPFDSSLLRGSKFVFETGQGTVVEGLEVAVRSMRPYEQAEFIISYKLLFGELGCPPRIKPKADALFKVEVIDYSLIGDAKGIDAIPQEDRDKFCVVYPKAVDLHLHGKDSVKLGRYQSAATAFERAVSSLNYCRMANDEEERKQTELLTTLNQNLMIVYNKMNKPKRACIMMKALRHLTMGNPSCKALFQEGRALAALGEYNLARNAYLQAQAKQPANKEISDEIISMNKRISKYEEASRDIWARAFSLKNSKSDVRKTPAQLEKEAKEQDFNDKMEDLIRRFKNTSDQQVSFSRKSYSNAQFDATCKLAKEHNLKLTLSPIQEDVLTLSKPDVKFA
On to B1, for which, in assay [2], the binding entry is recorded as “binds”.

B2: Myc-tagged Armi (Myc-Armi) (protein, UniProt Q6J5K9 1-1188)
chain: MFTYVSKFFTNPDRNREDILESLDRENSFLDQKLMEEKMDQQLKANPNEINGVLSNKIAELTHGLSEMDVSKESSCTARKGVITSLDGDRGVIDKDVLFETKVAEDIILDLHVGCVVEYLTFTTGEAMRVVKVKSILEHSWEDTSQKEIEKAVDNLKNEKPTFFNTETRSVLGLISQRLASSIDVETEYGQLTVELDNIEMNFIPTNGDRVRLECNIQLDDGFVDKQGEILEVTKLFPTRIQEGEKCIVERVYVHMVVLGPETYILKTDLPTGTDLHLGDIVLADLIECQYSKFTRRAIKITPLEKNFGATKLTQQSSMGSSGSGKAVTVTGVNRFITAELWQKESVSLKLTNNLNRTLRLESITVCNDSESQLSVVSPLESKEISSGSEITVTFEIHTQFLGEAIEKYVLNFDLLKVRRVFTVIVCKTKEEVAEAEKRMIAAEALMAPGRNSQERSRFYANQVWCNKVDVIPGQQIVTKRRFVALRLGCFEVPKELRQICLTSERRQEMIKAIEQHYSFLTEPLSIKTYMHRFRLLLHLEEIECFVNFRNYDRDRAHFLRDGEFLTLQIENLAERRPSLVIGDTLRVINPWSDPDSQTTKSYEGIIHKVLFDRILLKFHSSFQEKYNGEDYRLEFYFSRYSFRKQHHAISKIVGVMGEDFLFPSKVTKRENPQLDVYMKDDDMYLYDSKLEWYNQSLNSIQKRAVFNILRGEAENIPYVLFGPPGSGKTMTLIETLLQLVRNLPGARILVGTPSNSSADLVTKRLIDSKALLQGDFIRLVSYNQVEKDLIPPEIMSYCATSDVGAVGSCEDKMMVTESGLKLRCQAKFIGTHRITISTCTTLGNFLQLGFPAGHFTHVLFDEAGQCTEPETMVPIVMLTKKRSQVVLSGDPRQLQSIVTSRIASKMGFSISFLERLLERSPYRKDLQRFPESSGYNPLVLTKLLYNYRALPSIMSIYSRLFYDDELIPVLSEKDSRESRLLSKLRCVFESEKDIPQAHGTFFYGIIGENRQNNDSPSWFNPQEVREVFLMTIALYRANVTADQIGIITPYQKQVKMLRSMFIGTDVVMPKIGSVEEFQGQERDIILISTVRSSEEILRMDARFSLGFVRCSKRLNVAVSRARAMMIIFGNPHLLAVDECWRQLILFCVKNNAYFGCDLPQMVINQKDEVPVCLETFVPSLNTTDDLN
On to B2, for which the binding entry in assay [2] is recorded as “binds”.

B3: Piwi, endogenous in OSCs (protein, UniProt Q9VKM1 1-843)
chain: MADDQGRGRRRPLNEDDSSTSRGSGDGPRVKVFRGSSSGDPRADPRIEASRERRALEEAPRREGGPTERKPWGDQYDYLNTRPAELVSKKGTDGVPVMLQTNFFRLKTKPEWRIVHYHVEFEPSIENPRVRMGVLSNHANLLGSGYLFDGLQLFTTRKFEQEITVLSGKSKLDIEYKISIKFVGFISCAEPRFLQVLNLILRRSMKGLNLELVGRNLFDPRAKIEIREFKMELWPGYETSIRQHEKDILLGTEITHKVMRTETIYDIMRRCSHNPARHQDEVRVNVLDLIVLTDYNNRTYRINDVDFGQTPKSTFSCKGRDISFVEYYLTKYNIRIRDHNQPLLISKNRDKALKTNASELVVLIPELCRVTGLNAEMRSNFQLMRAMSSYTRMNPKQRTDRLRAFNHRLQNTPESVKVLRDWNMELDKNVTEVQGRIIGQQNIVFHNGKVPAGENADWQRHFRDQRMLTTPSDGLDRWAVIAPQRNSHELRTLLDSLYRAASGMGLRIRSPQEFIIYDDRTGTYVRAMDDCVRSDPKLILCLVPNDNAERYSSIKKRGYVDRAVPTQVVTLKTTKNRSLMSIATKIAIQLNCKLGYTPWMIELPLSGLMTIGFDIAKSTRDRKRAYGALIASMDLQQNSTYFSTVTECSAFDVLANTLWPMIAKALRQYQHEHRKLPSRIVFYRDGVSSGSLKQLFEFEVKDIIEKLKTEYARVQLSPPQLAYIVVTRSMNTRFFLNGQNPPPGTIVDDVITLPERYDFYLVSQQVRQGTVSPTSYNVLYSSMGLSPEKMQKLTYKMCHLYYNWSGTTRVPAVCQYAKKLATLVGTNLHSIPQNALEKKFYYL
On to B3, for which the binding entry in assay [3] was “binds”.

B4: Myc-tagged Piwi (Myc-Piwi) (protein, UniProt Q9VKM1 1-843)
chain: MADDQGRGRRRPLNEDDSSTSRGSGDGPRVKVFRGSSSGDPRADPRIEASRERRALEEAPRREGGPTERKPWGDQYDYLNTRPAELVSKKGTDGVPVMLQTNFFRLKTKPEWRIVHYHVEFEPSIENPRVRMGVLSNHANLLGSGYLFDGLQLFTTRKFEQEITVLSGKSKLDIEYKISIKFVGFISCAEPRFLQVLNLILRRSMKGLNLELVGRNLFDPRAKIEIREFKMELWPGYETSIRQHEKDILLGTEITHKVMRTETIYDIMRRCSHNPARHQDEVRVNVLDLIVLTDYNNRTYRINDVDFGQTPKSTFSCKGRDISFVEYYLTKYNIRIRDHNQPLLISKNRDKALKTNASELVVLIPELCRVTGLNAEMRSNFQLMRAMSSYTRMNPKQRTDRLRAFNHRLQNTPESVKVLRDWNMELDKNVTEVQGRIIGQQNIVFHNGKVPAGENADWQRHFRDQRMLTTPSDGLDRWAVIAPQRNSHELRTLLDSLYRAASGMGLRIRSPQEFIIYDDRTGTYVRAMDDCVRSDPKLILCLVPNDNAERYSSIKKRGYVDRAVPTQVVTLKTTKNRSLMSIATKIAIQLNCKLGYTPWMIELPLSGLMTIGFDIAKSTRDRKRAYGALIASMDLQQNSTYFSTVTECSAFDVLANTLWPMIAKALRQYQHEHRKLPSRIVFYRDGVSSGSLKQLFEFEVKDIIEKLKTEYARVQLSPPQLAYIVVTRSMNTRFFLNGQNPPPGTIVDDVITLPERYDFYLVSQQVRQGTVSPTSYNVLYSSMGLSPEKMQKLTYKMCHLYYNWSGTTRVPAVCQYAKKLATLVGTNLHSIPQNALEKKFYYL
Turning to B4, the binding entry in assay [4] and in assay [2] was “binds” throughout.
